PubChem BioAssay AID1259297 – Sanger Institute | 2017
Screen: 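Kinase knock-downs that lower colorectal cancer cell viability or act with drugs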 (primary screen). Cell system: human RCM1 colorectal cancer cell line. Knock-down reagent: siRNA pool against human genes. Conditions: separate arms: DMSO vehicle, or one anchor drug at a mild dose: BYL719 1 µM, cetuximab 5 µg/ml, trametinib 10 nM. Measurement: 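Viability per well relative to a non-targeting pool, mean of replicates; robust z-score for knock-down alone; synergy score with BYL719, cetuximab or trametinib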. Scale: viability z-score, knock-down alone: higher = more viable cells than non-targeting controls; viability, knock-down alone (DMSO): higher = more viable cells; synergy score with trametinib: higher = stronger combined killing with trametinib; synergy score with BYL719: higher = stronger combined killing with BYL719; synergy score with cetuximab: higher = stronger combined killing with cetuximab. Active means: 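Called essential if knock-down without drug gives a viability robust z-score under -3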. Meaning of the calls: active = essential when knocked down alone; inactive = no clear loss of viability alone.
The whole screen tested 794 reagents; below is an unselected part. 13 of all reagents (1.6%) were called active. 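Calls reflect knock-down without drug only; drug synergy is judged separately, with scores above 0.15 counted as synergy.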 Viability is capped at 1. Not given: the amount of reagent, the time to read-out.

| gene | viability z-score, knock-down alone | viability, knock-down alone (DMSO) (fraction of control) | synergy score with trametinib | synergy score with BYL719 | synergy score with cetuximab | Call |
| --- | --- | --- | --- | --- | --- | --- |
| NR2F2 (nuclear receptor subfamily 2 group F member 2) | 0.559 | 0.968 | 0.0889 | -0.0139 | -0.024 | inactive |
| PRKCD (protein kinase C delta) | -0.726 | 0.849 | -0.0834 | 0.0395 | -0.0508 | inactive |
| ITSN1 (intersectin 1) | -0.268 | 0.892 | 0.015 | 0.0824 | 0.0553 | inactive |
| CDC42BPA (CDC42 binding protein kinase alpha) | -0.961 | 0.827 | 0.0393 | -0.0141 | -0.0387 | inactive |
| MARK4 (microtubule affinity regulating kinase 4) | 0.492 | 0.962 | 0.103 | 0.0114 | -0.0949 | inactive |
| TRIB2 (tribbles pseudokinase 2) | -0.667 | 0.855 | 0.091 | -0.0498 | 0.116 | inactive |
| CDK3 (cyclin dependent kinase 3) | 0.9 | 1 | 0.0654 | -0.0728 | -0.118 | inactive |
| CDKL3 (cyclin dependent kinase like 3) | 0.134 | 0.929 | 0.0874 | -0.0909 | -0.126 | inactive |
| PIM3 (Pim-3 proto-oncogene, serine/threonine kinase) | 0.9 | 1 | -0.00791 | -0.0728 | -0.118 | inactive |
| PHKB (phosphorylase kinase regulatory subunit beta) | 0.9 | 1 | -0.146 | -0.0118 | -0.0382 | inactive |
| EIF2AK1 (eukaryotic translation initiation factor 2 alpha kinase 1) | 0.719 | 0.983 | 0.0208 | 0.116 | 0.0999 | inactive |
| CSNK2B (casein kinase 2 beta) | -1.54 | 0.774 | 0.0605 | -0.126 | -0.0357 | inactive |
| ROCK2 (Rho associated coiled-coil containing protein kinase 2) | 0.9 | 1 | 0.141 | -0.0362 | -0.118 | inactive |
| BRSK1 (BR serine/threonine kinase 1) | -0.0219 | 0.914 | -0.0406 | -0.0788 | -0.047 | inactive |
| PIK3C2B | 0.343 | 0.948 | 0.0341 | -0.0952 | -0.117 | inactive |
| CAMKK2 (calcium/calmodulin dependent protein kinase kinase 2) | -0.0192 | 0.915 | 0.0107 | -0.0397 | -0.193 | inactive |
| EEF2K (eukaryotic elongation factor 2 kinase) | -0.39 | 0.88 | -0.0509 | 0.0255 | 0.0166 | inactive |

3 entries from above, ordered by “viability z-score, knock-down alone”, highest first.
| gene | viability z-score, knock-down alone | viability, knock-down alone (DMSO) (fraction of control) | synergy score with trametinib | synergy score with BYL719 | synergy score with cetuximab | Call |
| --- | --- | --- | --- | --- | --- | --- |
| PIK3C2B | 0.343 | 0.948 | 0.0341 | -0.0952 | -0.117 | inactive |
| CAMKK2 (calcium/calmodulin dependent protein kinase kinase 2) | -0.0192 | 0.915 | 0.0107 | -0.0397 | -0.193 | inactive |
| BRSK1 (BR serine/threonine kinase 1) | -0.0219 | 0.914 | -0.0406 | -0.0788 | -0.047 | inactive |

Continued.
| gene | viability z-score, knock-down alone | viability, knock-down alone (DMSO) (fraction of control) | synergy score with trametinib | synergy score with BYL719 | synergy score with cetuximab | Call |
| --- | --- | --- | --- | --- | --- | --- |
| RET (ret proto-oncogene) | 0.81 | 0.992 | 0.0603 | -0.0558 | -0.126 | inactive |
| PDGFRB (platelet derived growth factor receptor beta) | -1.97 | 0.734 | -0.0418 | 0.0236 | 0.0603 | inactive |
| SMAD4 (SMAD family member 4) | -0.763 | 0.846 | -0.048 | -0.0451 | -0.0968 | inactive |
| BMAL1 (basic helix-loop-helix ARNT like 1) | -2.91 | 0.647 | -0.0319 | -0.00314 | 0.0452 | inactive |
| PIK3CD | 0.9 | 1 | -0.0221 | -0.0728 | -0.118 | inactive |
| PRKY (protein kinase Y-linked (pseudogene)) | -1.21 | 0.804 | 0.0772 | -0.0456 | -0.111 | inactive |
| MOK (MOK protein kinase) | 0.628 | 0.975 | 0.224 | 0.0118 | -0.14 | inactive |
| CDK10 (cyclin dependent kinase 10) | -0.709 | 0.851 | 0.112 | 0.125 | 0.082 | inactive |
| NR4A2 (nuclear receptor subfamily 4 group A member 2) | -2.92 | 0.646 | 0.0725 | -0.00496 | -0.0123 | inactive |
| RPS6KA5 (ribosomal protein S6 kinase A5) | -0.263 | 0.892 | 0.0851 | 0.136 | -0.019 | inactive |
| STK32C (serine/threonine kinase 32C) | 0.9 | 1 | -0.127 | -0.0728 | -0.0688 | inactive |
| PIK3R4 (phosphoinositide-3-kinase regulatory subunit 4) | 0.634 | 0.975 | 0.104 | 0.0313 | 0.0204 | inactive |
| CDKL4 (cyclin dependent kinase like 4) | -0.489 | 0.871 | 0.18 | 0.0139 | 0.00556 | inactive |
| RBKS (ribokinase) | 0.9 | 1 | -0.0682 | -0.0728 | -0.118 | inactive |
| CKS2 (CDC28 protein kinase regulatory subunit 2) | 0.186 | 0.934 | 0.0125 | -0.124 | -0.177 | inactive |
| NME2 (NME/NM23 nucleoside diphosphate kinase 2) | 0.9 | 1 | 0.00473 | -0.0728 | -0.118 | inactive |
| N4BP2 (NEDD4 binding protein 2) | 0.385 | 0.952 | -0.0407 | -0.117 | -0.16 | inactive |
| HIPK1 (homeodomain interacting protein kinase 1) | 0.9 | 1 | -0.0429 | -0.0728 | -0.118 | inactive |
| DNMT3A (DNA methyltransferase 3 alpha) | -1.5 | 0.778 | 0.131 | -0.0783 | -0.0411 | inactive |
| PANK3 (pantothenate kinase 3) | 0.627 | 0.975 | 0.0211 | -0.0932 | -0.141 | inactive |
| DIS3 (DIS3 exosome endoribonuclease and 3'-5' exoribonuclease) | -0.543 | 0.866 | -0.239 | -0.104 | -0.122 | inactive |
| MAST3 (microtubule associated serine/threonine kinase 3) | -0.389 | 0.88 | 0.0805 | -0.0986 | -0.212 | inactive |
| CAMK2B (calcium/calmodulin dependent protein kinase II beta) | 0.9 | 1 | 0.0962 | -0.0176 | -0.0137 | inactive |
| IRAK3 (interleukin 1 receptor associated kinase 3) | -2.43 | 0.69 | 0.015 | 0.0342 | 0.0753 | inactive |
| EPHA4 (EPH receptor A4) | 0.0494 | 0.921 | -0.0619 | 0.0541 | -0.0787 | inactive |
| DTYMK (deoxythymidylate kinase) | 0.9 | 1 | -0.00933 | -0.0728 | -0.118 | inactive |
| PRKAR1B (protein kinase cAMP-dependent type I regulatory subunit beta) | 0.373 | 0.951 | 0.0342 | -0.0123 | -0.061 | inactive |
| PI4KA (phosphatidylinositol 4-kinase alpha) | 0.01 | 0.917 | 0.197 | 0.09 | -0.0354 | inactive |
| PKIA (cAMP-dependent protein kinase inhibitor alpha) | -0.139 | 0.904 | -0.0592 | 0.0265 | -0.118 | inactive |
| CDK17 (cyclin dependent kinase 17) | 0.9 | 1 | -0.0577 | -0.0728 | -0.118 | inactive |
| CSNK1D (casein kinase 1 delta) | 0.111 | 0.927 | 0.00664 | -0.112 | -0.183 | inactive |
| DGKQ (diacylglycerol kinase theta) | 0.489 | 0.962 | 0.0581 | 0.0301 | -0.00132 | inactive |
| IRAK1 (interleukin 1 receptor associated kinase 1) | -0.0634 | 0.911 | 0.155 | -0.102 | -0.197 | inactive |
